Results published in article PMC7002338.
Construct, isoform or probe ends are uncertain for at least one entry. Weaker means in comparison with the reference protein, sequence or condition of that experiment. Protein sequences can lack the tags named with them. At least one verdict was read from the data and is not stated in words by the source.

Target: T1, GntR (UniProt Q8NMP1)
T1 sequence (looked up, limits assumed): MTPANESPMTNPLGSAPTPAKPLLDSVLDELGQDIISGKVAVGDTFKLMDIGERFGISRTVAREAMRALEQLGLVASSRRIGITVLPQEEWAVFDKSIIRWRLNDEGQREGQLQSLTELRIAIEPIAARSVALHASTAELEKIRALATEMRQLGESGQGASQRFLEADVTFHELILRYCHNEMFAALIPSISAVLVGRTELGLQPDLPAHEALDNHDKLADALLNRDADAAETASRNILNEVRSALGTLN
Assay: EMSA
Settings: EMSA: 14 nM DNA, pH and temperature in Text S1, recombinant protein, protein details: His-tag, probe letters rebuilt from the primers and the genome

Sequence | binding result (14 nM DNA, no effector, shift at low GntR concentrations) | binding result (100 mM gluconate (effector), GntR dissociates) | binding result (100 mM glucose (no effector)) | binding result (14 nM DNA, lacks the shift at low GntR concentrations)
AGCGACGCCGCAGGGGGATCCGCTCAAGGAAGAGTTCTTCATTGGTCTTTTGTTGCGGGTTGCCGTAGATGATTTCAGGGTGGCTCAAAGTCAGGGAGGTGTAGTCGAATTCGATTGGGTGAAGCCTGTCGCGATTACGGTTTTCGCGCTCGGTACCAGTAATAAAGCTTGCGATGCGGGAGTAATTAACCCGACCTTTGATAAATACCTGAGTGCCTTCTTTGAGGCTTGATGCCTTGATCTTTTCGGCGACTGGTGCTGGCTGCACAGGTTGAGGGGTAACTGGGTAGGTCATGAGAGAAAAAGCCTTTCGAGAACTGGGTGTAGTGATTTCTGTTGCAGGTTTATGTAGACGAAACTTTAAAAAACCTATATGTTAATAGTAACAGAAATTAATAAGATACTAGAGTTATGATAGTACCAATTTAATTTGTAGTATCCAGGGAACATTAAACGGGTAAAGGTAAAGGACAAACGAACATGGCGATTAAAGGCGCAATGCCGAAAAATTGAACTTTAAGAAGGAGATATCA (double strand) [Plys_CS_0 (EMSA)] | binds | binds more weakly | binds | –
TGATATCTCCTTCTTAAAGTTCAATTTTTCGGCATTGCGCCTTTAATCGCCATGTTCGTTTGTCCTTTACCTTTACCCGTTTAATGTTCCCTGGATACTACAAATTAAACTCTAGTATCTTATTAATTTCTGTTACTATTAACATATAGGTTTTTTAAAGTTTCGTCTACATAAACCTGCAACAGAAATCACTACACCCAGTTCTCGAAAGGCTTTTTCTCTCATGACCTACCCAGTTACCCCTCAACCTGTGCAGCCAGCACCAGTCGCCGAAAAGATCAAGGCATCAAGCCTCAAAGAAGGCACTCAGGTATTTATCAAAGGTCGGGTTAATTACTCCCGCATCGCAAGCTTTATTACTGGTACCGAGCGCGAAAACCGTAATCGCGACAGGCTTCACCCAATCGAATTCGACTACACCTCCCTGACTTTGAGCCACCCTGAAATCATCTACGGCAACCCGCAACAAAAGACCAATGAAGAACTCTTCCTTGAGCGGATCCCCCTGCGGCGTCGCT (double strand) [Plys (EMSA)] | – | – | – | binds more weakly
